This is an account of results in paper PMC8384837.

Common to all, as to settings: yeast three-hybrid, YBZ-1, SC-Leu-His + 0.5 mM 3-AT, 4 days
Assay [1] addresses T1, PUM1 PUF domain R3-AIE C935A + R936I + Q939E (Homo sapiens) (UniProt Q14671).
T1 sequence: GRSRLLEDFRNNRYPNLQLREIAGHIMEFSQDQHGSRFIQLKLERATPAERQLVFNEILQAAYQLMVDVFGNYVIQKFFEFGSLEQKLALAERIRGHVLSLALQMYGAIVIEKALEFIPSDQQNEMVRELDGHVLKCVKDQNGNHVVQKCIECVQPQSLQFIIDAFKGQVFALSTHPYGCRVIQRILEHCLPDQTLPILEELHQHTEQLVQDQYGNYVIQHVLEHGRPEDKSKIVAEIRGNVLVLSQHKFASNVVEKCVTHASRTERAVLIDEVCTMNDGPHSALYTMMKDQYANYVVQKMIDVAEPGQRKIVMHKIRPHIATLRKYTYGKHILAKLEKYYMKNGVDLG

Assay [2] has as its target T2, PUM1 PUF domain R3-FRA C935F + Q939A (Homo sapiens) (UniProt Q14671).
T2 sequence: T1 sequence with A108F, I109R, E112A

Assay [3] concerns the target T3, PUM1 PUF domain R3-IRG C935I + Q939G (Homo sapiens) (UniProt Q14671).
T3 sequence: T1 sequence with A108I, I109R, E112G

Assay [4] concerns the target T4, PUM1 PUF domain R3-LRL C935L + Q939L (Homo sapiens) (UniProt Q14671).
T4 sequence: T1 sequence with A108L, I109R, E112L

Assay [5] deals with T5, PUM1 PUF domain R3-LRR C935L + Q939R (Homo sapiens) (UniProt Q14671).
T5 sequence: T1 sequence with A108L, I109R, E112R

Assay [6] deals with T6, PUM1 PUF domain R3-LRS C935L + Q939S (Homo sapiens) (UniProt Q14671).
T6 sequence: T1 sequence with A108L, I109R, E112S

The target in assay [7] is T7, PUM1 PUF domain R3-LRT C935L + Q939T (Homo sapiens) (UniProt Q14671).
T7 sequence: T1 sequence with A108L, I109R, E112T

Assay [8] concerns the target T8, PUM1 PUF domain R3-LSA C935L + R936S + Q939A (Homo sapiens) (UniProt Q14671).
T8 sequence: T1 sequence with A108L, I109S, E112A

In assay [9] the target is T9, PUM1 PUF domain R3-LSR C935L + R936S + Q939R (Homo sapiens) (UniProt Q14671).
T9 sequence: T1 sequence with A108L, I109S, E112R

For assay [10], the target named is T10, PUM1 PUF domain R3-MCR C935M + R936C + Q939R (Homo sapiens) (UniProt Q14671).
T10 sequence: T1 sequence with A108M, I109C, E112R

In assay [11] the target is T11, PUM1 PUF domain R3-QRG C935Q + Q939G (Homo sapiens) (UniProt Q14671).
T11 sequence: T1 sequence with A108Q, I109R, E112G

For assay [12], the target named is T12, PUM1 PUF domain R3-RAY C935R + R936A + Q939Y (Homo sapiens) (UniProt Q14671).
T12 sequence: T1 sequence with A108R, I109A, E112Y

For assay [13], the target named is T13, PUM1 PUF domain R3-RCW C935R + R936C + Q939W (Homo sapiens) (UniProt Q14671).
T13 sequence: T1 sequence with A108R, I109C, E112W

Assay [14] concerns the target T14, PUM1 PUF domain R3-RQL C935R + R936Q + Q939L (Homo sapiens) (UniProt Q14671).
T14 sequence: T1 sequence with A108R, I109Q, E112L

Assay [15] deals with T15, PUM1 PUF domain R3-RRG C935R + Q939G (Homo sapiens) (UniProt Q14671).
T15 sequence: T1 sequence with A108R, I109R, E112G

In assay [16] the target is T16, PUM1 PUF domain R3-RSG C935R + R936S + Q939G (Homo sapiens) (UniProt Q14671).
T16 sequence: T1 sequence with A108R, I109S, E112G

In assay [17] the target is T17, PUM1 PUF domain R3-RSH C935R + R936S + Q939H (Homo sapiens) (UniProt Q14671).
T17 sequence: T1 sequence with A108R, I109S, E112H

In assay [18] the target is T18, PUM1 PUF domain R3-RSS C935R + R936S + Q939S (Homo sapiens) (UniProt Q14671).
T18 sequence: T1 sequence with A108R, I109S, E112S

Assay [19] concerns the target T19, PUM1 PUF domain R3-WYR C935W + R936Y + Q939R (Homo sapiens) (UniProt Q14671).
T19 sequence: T1 sequence with A108W, I109Y, E112R

The target of assay [20] is T20, PUM1 PUF domain R3-YRR C935Y + Q939R (Homo sapiens) (UniProt Q14671).
T20 sequence: T1 sequence with A108Y, I109R, E112R

Positions count from the first letter of the chain named. This is one part of the list.

“GGCUAGAACUAGUGGAUCCCCCGGCGCCCGGCGGCUCGAGCCCGGGUAAGUGUAAAUAGUCUGCAUGCCGCCGGGCGCCAUGCCUGCAGGUCGACUCUAGAAAACAUG”: the binding signal (log2 enrichment (interaction score)) in assay [1] was -1.03; in [2], -1.54; in assay [3] it was -1.36; in assay [4], -1.33; in [5], -1.69; in assay [6] it was -1.11. Further, the binding signal (log2 enrichment (interaction score)) in [7] was -1.93; in assay [8] it was -1.4; in assay [9] it was -1.54; in [10], -1.04; in assay [11], -1.06; in [12] it was -1.14. The binding signal (log2 enrichment (interaction score)) in assay [13] is -0.94; in assay [14] it was -0.95; in assay [15], -1.42; in assay [16], -1.65; in assay [17] it was -1.59; in [18], -1.31. The binding signal (log2 enrichment (interaction score)) in assay [19] is -1.04; in assay [20] it was -0.85.
